Values quoted from earlier work, collected in patent US11865359B2, “Tumor imaging with x-rays and other high energy sources using as contrast agents photon-emitting phosphors having therapeutic properties” (IMMUNOLIGHT, LLC., priority 2014, dated 2024).
At least one structure is not confirmed: it was looked up by name or label, or the drawing left a doubt.

Conditions: with 652 nm light, clinical studies; cited from earlier work

In the case of `Oc1cccc(-c2c3nc(c(-c4cccc(O)c4)c4ccc([nH]4)c(-c4cccc(O)c4)c4nc(c(-c5cccc(O)c5)c5ccc2[nH]5)CC4)C=C3)c1` [Foscan, Tetra (m-hydroxyphenyl) chlorin], the tissue effect is listed as “up to 10 mm”.
